No constants are given. Whether binding was seen depends on the method and setting. Some entries that bind do so weakly or less than the wild type. Tags and fused reporters may be left off the sequences shown.
T1: MBP–CENP–T (chicken CENP–T amino acids 531–639 fused to MBP) (chicken) (UniProt F1NPG5)
T1 sequence: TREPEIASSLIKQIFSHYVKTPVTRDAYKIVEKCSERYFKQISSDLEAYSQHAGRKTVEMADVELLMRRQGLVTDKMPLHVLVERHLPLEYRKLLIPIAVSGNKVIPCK

T2: MBP–CENP–T–W complex (chicken) (UniProt F1NPG5+P0DJH6)
T2 sequence 1: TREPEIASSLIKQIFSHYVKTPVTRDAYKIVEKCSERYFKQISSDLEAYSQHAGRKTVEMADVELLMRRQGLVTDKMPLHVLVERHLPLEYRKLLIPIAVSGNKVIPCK
T2 sequence 2: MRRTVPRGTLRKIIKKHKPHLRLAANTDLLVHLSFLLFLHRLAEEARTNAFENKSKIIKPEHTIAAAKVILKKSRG

B1: CENP–W (chicken) (protein, UniProt P0DJH6 1-76)
chain: MRRTVPRGTLRKIIKKHKPHLRLAANTDLLVHLSFLLFLHRLAEEARTNAFENKSKIIKPEHTIAAAKVILKKSRG
B2: CENP–S–X complex (chicken) (complex, UniProt E1BSW7 1-139; P0DJH7 1-80)
chain 1: MEAAGGEQRELLIQRLRAAVHYTTGCLCQDVAEDKGVLFSKQTVAAISEITFRQCENFARDLEMFARHAKRSTITSEDVKLLARRSNSLLKYITQKSDELASSNMEQKEKKKKKSSAAKGRKTEENETPVTESEDSNMA
chain 2: MEEREGGFRKETVERLLRLHFRDGRTRVNGDALLLMAELLKVFVREAAARAARQAQAEDLEKVDIEHVEKVLPQLLLDFV

Columns and labels:
[1] = target: T1, MBP–CENP–T (chicken CENP–T amino acids 531–639 fused to MBP) (chicken); assay: co-purification (amylose resin, then gel filtration); MBP–CENP–T and CENP–W co-expressed in bacteria; held by MBP on amylose resin
[2] = target: T2, MBP–CENP–T–W complex (chicken); assay: native gel or EMSA; complexes mixed with 100 bp DNA from pUC119 (1.25 µM), incubated 15 min at 37°C, 5%–20% gradient native polyacrylamide gel, ethidium bromide; proteins extracted from the bands and run on SDS–PAGE (silver stain); also after cleavage of MBP by TEV protease (50 mM Tris–HCl pH 7.5, 100 mM NaCl, 1 mM EDTA, 1 mM DTT, 30 min at 30°C); both purified

Binder | binding [1] | binding [2]
B1 | binds | –
B2 | – | binds
